# PubChem BioAssay AID1671195 | Yale University | 2021
# Aim: 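Regulators of LDL receptor activity judged by labelled LDL uptake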 (primary screen)
# Cell system: human Huh7 hepatoma cells
# Reagent: siRNA pool against human genes, 18 nM
# Timing: about 2 to 2.5 days of knockdown, then 8 h LDL uptake
# Conditions: DiI-labelled LDL at 30 µg/ml for 8 h, in lipoprotein-deficient serum medium
# Read-out: 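Per-cell DiI-LDL intensity by automated imaging; well means scaled to the plate median and given as a robust z-score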
# Direction: robust z-score: higher = more LDL uptake after knockdown
# Active means: 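Active when two or more replicates show a robust z-score above 2 or below -2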
# The deposit covers about 22,000 reagents; this is an unselected part. About 1,510 of them (6.9%) count as active. 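Active includes knockdowns raising or lowering LDL uptake; positive z-scores mean more uptake, negative mean less.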 Reagents against one gene are numbered here. Reagent sequences are not shown.
Gene,reagent,"robust z-score, replicate 1","robust z-score, replicate 2","robust z-score, replicate 3",Call
TBC1D1,1,-0.244,-0.458,-0.216,inactive
CES1P2,1,1.37,1.21,1.26,inactive
GOLGA6EP,1,0.157,0.105,-0.264,inactive
CDR2-DT,1,-0.178,0.399,-0.246,inactive
TXLNA,1,-0.995,-1.07,-1.03,inactive
EPHA5,1,-0.459,-0.626,-1.26,inactive
LOC390146 (retired record),1,-0.478,-0.348,-0.688,inactive
LOC389159 (retired record),1,2.93,4.93,4.04,active
LOC284798,1,0.799,0.587,0.549,inactive
OR1L6,1,-1.06,-0.431,-0.118,inactive
GUSBP8,1,-0.217,-0.00411,-0.308,inactive
DHDH,1,1.28,1.33,1.45,inactive
GRID1,1,-0.326,0.215,-0.503,inactive
SERPINB8,1,-0.698,-0.692,1.09,inactive
ARHGEF25,1,-0.271,1.54,0.674,inactive
LOC285711 (retired record),1,-0.925,-0.714,-0.659,inactive
CIMAP1A,1,-0.571,0.234,-0.453,inactive
ANKRD22,1,1.02,1.32,0.583,inactive
CASZ1,1,2.22,2.2,1.89,active
CASZ1,2,0.782,-0.0418,0.276,inactive
LOC391347 (retired record),1,0.494,0.573,0.689,inactive
OR4C6,1,-1.24,-1.53,-1.25,inactive
PPM1G,1,-0.108,0.272,0.169,inactive
VSTM1,1,-0.175,-0.248,-0.0374,inactive
DACH1,1,3.82,2.78,3.1,active
KRT9,1,-0.764,-0.738,-0.53,inactive
RTN4RL1,1,1.65,0.53,0.337,inactive
FGF14-IT1,1,1.5,1.44,1.42,inactive
CCDC15,1,-0.446,-0.413,0.269,inactive
MYBPC2,1,-1.28,-0.595,-1.4,inactive
ADH1A,1,0.971,0.683,0.934,inactive
APOBEC1,1,2.26,2.18,2.51,active
LCE2B,1,-0.505,-0.0274,-1.55,inactive
TAPT1-AS1,1,-0.221,-0.167,-0.376,inactive
DAZAP1,1,-0.32,-0.599,-0.632,inactive
LOC389437 (retired record),1,0.53,0.968,1.15,inactive
SLAMF9,1,-1.8,-1.37,-1.51,inactive
TRIM60,1,1.77,-0.733,0.113,inactive
NDUFS3,1,0.194,-0.242,-0.412,inactive
LOC402103 (retired record),1,0.118,0.706,0.916,inactive
TNIK,1,-0.795,-0.668,-0.874,inactive
BMPR1B,1,0.719,0.482,0.458,inactive
ISLR,1,-0.104,-0.822,-0.529,inactive
LOC284527 (retired record),1,-1.16,-1.24,-0.999,inactive
SHTN1,1,-1.04,-0.804,-1.11,inactive
UTP4,1,-1.68,-1.71,-1.65,inactive
TMF1,1,-1.2,-2.41,-1.13,inactive
RPS14,1,-0.808,-1.83,0.337,inactive
UHRF2,1,0.669,0.9,0.181,inactive
RPL26P12,1,-1.2,-1.33,-1.24,inactive
SIGLEC12,1,-1.04,-1.57,-0.603,inactive
ZFAND6,1,-1.18,-0.574,-0.224,inactive
SYNGR3,1,-1.52,-1.01,-1.24,inactive
TTC33,1,0.448,1.9,1.19,inactive
MBLAC2,1,0.131,-1.03,0.157,inactive
APEH,1,-0.44,0.123,0.289,inactive
ANP32A,1,-0.453,-0.37,-0.194,inactive
IQCB1,1,1.87,0.386,-0.216,inactive
ADAM7,1,-0.0853,-0.814,-0.567,inactive
SLC1A4,1,-1.59,-1.68,-1.68,inactive
SPIRE1,1,-1.06,-1.13,0.267,inactive
EPHB1,1,0.425,0.472,0.269,inactive
CFI,1,-0.628,-0.907,-0.838,inactive
TAT,1,-0.262,-0.174,-0.538,inactive
SMIM43,1,2.24,3.18,1.82,active
LINC02649,1,0.101,-0.0251,-0.895,inactive
GLB1L3,1,2.54,2.33,3.01,active
GLB1L3,2,0.0378,0.403,0.0991,inactive
MPPE1,1,0.0478,0.238,0.873,inactive
IWS1,1,-2.08,-0.569,-1.99,active
TASOR,1,0.234,1.91,0.576,inactive
LINC01697,1,0.573,0.304,0.384,inactive
ARMCX4,1,0.971,0.796,0.551,inactive
ARMCX4,2,-0.813,-0.169,-0.416,inactive
PLD6,1,-0.573,-0.464,0.362,inactive
SETP14,1,0.267,0.221,-0.475,inactive
PSMD5,1,0.0651,0.162,-0.214,inactive
JHY,1,1.17,0.613,0.492,inactive
NEBL,1,0.0411,-0.265,-0.526,inactive
NEBL,2,-1.51,-1.54,-1.73,inactive
ECRG4,1,0.659,0.793,-0.172,inactive
ANKRD10,1,-2.66,-2.27,-2.19,active
MRPL36,1,-0.211,-0.715,-0.273,inactive
SLC15A4,1,0.486,0.671,0.699,inactive
LOC440538 (retired record),1,-2.53,-2.92,-2.54,active
AIP,1,-1.92,-2.15,-2.08,active
MAVS,1,0.512,1.1,1.09,inactive

14 neighbouring entries from above, quoted:
Gene,reagent,"robust z-score, replicate 1","robust z-score, replicate 2","robust z-score, replicate 3",Call
SIGLEC12,1,-1.04,-1.57,-0.603,inactive
ZFAND6,1,-1.18,-0.574,-0.224,inactive
SYNGR3,1,-1.52,-1.01,-1.24,inactive
TTC33,1,0.448,1.9,1.19,inactive
MBLAC2,1,0.131,-1.03,0.157,inactive
APEH,1,-0.44,0.123,0.289,inactive
ANP32A,1,-0.453,-0.37,-0.194,inactive
IQCB1,1,1.87,0.386,-0.216,inactive
ADAM7,1,-0.0853,-0.814,-0.567,inactive
SLC1A4,1,-1.59,-1.68,-1.68,inactive
SPIRE1,1,-1.06,-1.13,0.267,inactive
EPHB1,1,0.425,0.472,0.269,inactive
CFI,1,-0.628,-0.907,-0.838,inactive
TAT,1,-0.262,-0.174,-0.538,inactive
